Patent publication US11692025
Results are given in words; binding and its absence hold for the method and conditions named. Some entries that bind do so weakly or less than the wild type. Blank lines part the entries; values can stand above or below the binder they belong to.

The chains behind the UniProt entries cited, without tags or fusion partners. Residues count along the entry.
UniProt P02768, residues 25-609: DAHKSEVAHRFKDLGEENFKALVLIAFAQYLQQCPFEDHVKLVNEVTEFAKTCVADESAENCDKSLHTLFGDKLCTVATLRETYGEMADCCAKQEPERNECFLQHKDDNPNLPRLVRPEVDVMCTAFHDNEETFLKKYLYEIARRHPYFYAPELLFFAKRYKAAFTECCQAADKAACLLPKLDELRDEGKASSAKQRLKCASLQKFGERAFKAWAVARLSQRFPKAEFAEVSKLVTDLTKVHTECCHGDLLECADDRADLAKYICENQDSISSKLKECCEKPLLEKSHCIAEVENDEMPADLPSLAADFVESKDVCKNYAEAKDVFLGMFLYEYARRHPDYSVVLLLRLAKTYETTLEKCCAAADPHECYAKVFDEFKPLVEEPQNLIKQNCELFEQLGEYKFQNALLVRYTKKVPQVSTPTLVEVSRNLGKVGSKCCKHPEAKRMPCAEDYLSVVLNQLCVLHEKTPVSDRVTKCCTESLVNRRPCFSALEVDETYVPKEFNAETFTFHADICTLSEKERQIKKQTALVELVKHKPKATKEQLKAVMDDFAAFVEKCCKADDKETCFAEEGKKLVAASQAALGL

Tests used:
[1] = biological target: human serum albumin (human) (UniProt P02768); test: phage display panning on HSA and screening
[2] = biological target: human serum albumin (human) (UniProt P02768); test: phage and periprep ELISA on HSA; purified 6xHis-tagged VNAR

- binding [1]: binds
B1: SEQ ID NO 37 (VNAR)
VNAR: TRVDQTPRTATKETGESLTINCVLTDTSYPLYSTYWYRKNPGSSNKERISISGRYVESVNKGTKSFSLRIKDLTVADSATYICRAMGTBSWTGDGAGTVLTVN

- binding [2]: binds
B2: BH4 (VNAR)
chain: TRVDQSPSSLSASVGDRVTITCVLTDTSYPLYSTYWYRKNPGSSNKEQISISGRYSESVNKGTKSFTLTISSLQPEDFATYYCRAMGTNLWTGDGA
